For part of these data: HELM strings list residues between dots; [ac] is acetyl, [am] amide, other brackets name non-standard units. Where a SMILES comes first, the peptide text is derived from it. [ ]: non-standard residue; d: D form. pGlu = O=C1CC[C@@H](C(=O)O)N1
Tests used:
[1] = Quenching of peptide tryptophan fluorescence by ferric ions (stoichiometry, apparent Kd); assay type: binding; conditions: for Stoichiometry of ferric ion binding (amidated gastrin17 and related peptides): pH 4.0; for Stoichiometry of ferric ion binding (amidated gastrin17 and related peptides) / Stoichiometry of ferric ion binding: mean ± S.E.; for Stoichiometry of ferric ion binding: 10 mM sodium acetate pH 4.0, 100 mM NaCl, 0.005% Tween 20; for Binding of ferric ions: pH 4.0, fluorescence quenching
Description: The tryptophan fluorescence of peptide solutions was measured in 3 mL quartz cuvettes thermostated at […], with a Spex Fluorolog-2 spectrofluorimeter (Spex Industries, Edison, N.J.), with the excitation and emission wavelengths set at 290 and 345 nm, respectively. The quenching of tryptophan fluorescence induced by the binding of metal ions was used to calculate the fraction of binding sites occupied, fa: fa=(yf−y)/(yf−yb) where y is the fluorescence signal at a given concentration of metal ions and yb and yf are the signals when the binding sites are fully occupied and unoccupied, respectively (Winzor et al, 1995). The stoichiometry, p, and apparent dissociation constant, Kd, were then obtained, using the program Sigmastat (Jandel Scientific, San Rafael, Calif.), from the intercept and slope of a linear regression of the data transformed as described by Winzor and Sawyer (1995) in terms of the equation Cs/fa=pCa+Kd/(1−fa) where Cs is the total concentration of metal ions, and Ca is the total concentration of glycine-extended gastrin17. For the bismuth binding studies, the data was fitted by non-linear regression with the program Sigmaplot (Jandel Scientific, San Rafael, Calif.) to the equations for models with one binding site or two binding sites with identical affinities: fa=x/(Kd1+x) or to the model with two binding sites with different affinities: fa=(Kd1·x+Kd2·x+2x^2)/2(Kd1·Kd2+Kd1·x+Kd2·x+x^2) where x is the concentration of free metal ions, Kd1 is the first site dissociation constant and Kd2 is the second site dissociation constant. For the one-site model the value of x at any given total concentration of metal ions was obtained by exact solution of the appropriate quadratic (Malby et al, 2001). For the two-site models the value of x was obtained by an iterative Newton-Raphson procedure (Linse et al, 1991). Absorption Spectroscopy
The tryptophan fluorescence of progastrin6-80, glycine-extended gastrin17 and related peptides was measured in the presence of increasing concentrations of ferric ions in 10 mM sodium acetate, pH 4.0, 100 mM NaCl, 0.005% Tween 20. […] Values from the indicated number of independent experiments were combined to obtain the mean values (±S.E.) presented above. No binding of ferric ions to Ggly1-4 or Ggly12-18 was observed.
The tryptophan fluorescence of amidated gastrin17 and related peptides was measured in the presence of increasing concentrations of ferric ions at pH 4.0 (8). Values of the stoichiometry and the apparent dissociation constant (Kd) were obtained from linear transformations of the data presented in FIG. 20A by least squares fitting. Values from the indicated number of independent experiments were combined to obtain the mean values (±S.E.) presented above.

[2] = 1H NMR titration of Ggly fragments with ferric citrate; assay type: binding; conditions: 2 mole of added Fe3+/mole peptide, pH 5.3
Description: The peptides LE5AYG, LE5A, E5AY and E5A (approximately 2 mM) were dissolved in H2O with 5 or 10% ^2H2O. […] Sequence-specific ^1H NMR resonance assignments were made from two-dimensional nuclear Overhauser enhancement spectroscopy (NOESY) and total correlation spectroscopy (TOCSY).
The apparent dissociation constants, Kd, for the complexes between ferric ions and the nonapeptide LE5AYG or the octapeptide LE5AY were obtained from the change in chemical shift of the Glu10 amide proton on addition of ferric citrate using the program Sigmaplot (Jandel Scientific, San Rafael, Calif.), by linear regression of the data to the equation 1/δ=Kd/Δ·1/[Fe^3+]+1/Δ where δ is the change in chemical shift, Δ is the maximum change in chemical shift, and [Fe^3+] is the concentration of added ferric ions. Measurement of Inositol Phosphate Production
In order to define the ligands involved in ferric ion binding, we next investigated the effect of ferric ions on the NMR spectra of the peptides. Ferric ion titration experiments were carried out by addition of 20, 50, or 200 mM ferric citrate solution to the peptides. The pH was maintained at 5.3 by addition of small amounts of NaO^2H or ^2HCl. Concentration, pH, temperature and use of ferrric citrate were in keeping with the conditions that were employed in earlier examples in order to prevent precipitation of peptide or ferric hydroxide. […] However, the apparent dissociation constants, Kd, for the complexes between ferric ions and the nonapeptide LE5AYG or the octapeptide LE5AY were obtained from the change in chemical shift of the GlulO amide proton on addition of ferric ions, as described above.

[3] = Ferric ion binding to tyrosine-containing Ggly fragments by absorption spectroscopy; conditions: for Fold Increase in absorbance on addition of ferric ions (maximum): 275 nm; for Fold Increase in absorbance on addition of ferric ions (maximum) / Stiochiom. of ferric ion binding: pH 4.0; for Stiochiom. of ferric ion binding: absorption maximum of 275 nm, 100 μM peptide; for Stoichiometry of binding: titration at 247 nm or 275 nm
[4] = peptide made by a vendor; conditions: whole synthesis, HPLC

Molecule: CSCC[C@H](NC(=O)[C@H](Cc1c[nH]c2ccccc12)NC(=O)CNC(=O)[C@H](Cc1ccc(O)cc1)NC(=O)[C@H](C)NC(=O)[C@H](CCC(=O)O)NC(=O)[C@H](CCC(=O)O)NC(=O)[C@H](CCC(=O)O)NC(=O)[C@H](CCC(=O)O)NC(=O)[C@H](CCC(=O)O)NC(=O)[C@H](CC(C)C)NC(=O)[C@H](Cc1c[nH]c2ccccc12)NC(=O)[C@@H]1CCCN1C(=O)CNC(=O)[C@@H]1CCC(=O)N1)C(=O)N[C@@H](CC(=O)O)C(=O)N[C@@H](Cc1ccccc1)C(N)=O [Gamide, reference compound]
- Stoichiometry of ferric ion binding (amidated gastrin17 and related peptides) [1]: 1.56 ± 0.09

Molecule: CSCC[C@H](NC(=O)[C@H](Cc1c[nH]c2ccccc12)NC(=O)CNC(=O)[C@H](Cc1ccc(O)cc1)NC(=O)[C@H](C)NC(=O)[C@H](CCC(=O)O)NC(=O)[C@H](CCC(=O)O)NC(=O)[C@H](CCC(=O)O)NC(=O)[C@H](C)NC(=O)[C@H](CCC(=O)O)NC(=O)[C@H](CC(C)C)NC(=O)[C@H](Cc1c[nH]c2ccccc12)NC(=O)[C@@H]1CCCN1C(=O)CNC(=O)[C@@H]1CCC(=O)N1)C(=O)N[C@@H](CC(=O)O)C(=O)N[C@@H](Cc1ccccc1)C(N)=O [GamideE7A] ([pGlu]GPWLEAEEEAYGWMDF-NH2)
- Stoichiometry of ferric ion binding (amidated gastrin17 and related peptides) [1]: 0.87 ± 0.04

Molecule: CSCC[C@H](NC(=O)[C@H](Cc1c[nH]c2ccccc12)NC(=O)CNC(=O)[C@H](Cc1ccc(O)cc1)NC(=O)[C@H](C)NC(=O)[C@H](CCC(=O)O)NC(=O)[C@H](C)NC(=O)[C@H](C)NC(=O)[C@H](CCC(=O)O)NC(=O)[C@H](CCC(=O)O)NC(=O)[C@H](CC(C)C)NC(=O)[C@H](Cc1c[nH]c2ccccc12)NC(=O)[C@@H]1CCCN1C(=O)CNC(=O)[C@@H]1CCC(=O)N1)C(=O)N[C@@H](CC(=O)O)C(=O)N[C@@H](Cc1ccccc1)C(N)=O [GamideE8, 9A] ([pGlu]GPWLEEAAEAYGWMDF-NH2)
- Stoichiometry of ferric ion binding (amidated gastrin17 and related peptides) [1]: 1.12 ± 0.11

Molecule: CSCC[C@H](NC(=O)[C@H](Cc1c[nH]c2ccccc12)NC(=O)CNC(=O)[C@H](Cc1ccc(O)cc1)NC(=O)[C@H](C)NC(=O)[C@H](C)NC(=O)[C@H](C)NC(=O)[C@H](C)NC(=O)[C@H](C)NC(=O)[C@H](C)NC(=O)[C@H](CC(C)C)NC(=O)[C@H](Cc1c[nH]c2ccccc12)NC(=O)[C@@H]1CCCN1C(=O)CNC(=O)[C@@H]1CCC(=O)N1)C(=O)N[C@@H](CC(=O)O)C(=O)N[C@@H](Cc1ccccc1)C(=O)NCC(=O)O [GglyE6-10A] ([pGlu]GPWLAAAAAAYGWMDFG-OH)
- Stoichiometry of ferric ion binding [1]: 0.88 ± 0.07

Molecule: CSCC[C@H](NC(=O)[C@H](Cc1c[nH]c2ccccc12)NC(=O)CNC(=O)[C@H](Cc1ccc(O)cc1)NC(=O)[C@H](C)NC(=O)[C@H](C)NC(=O)[C@H](C)NC(=O)[C@H](C)NC(=O)[C@H](CCC(=O)O)NC(=O)[C@H](CCC(=O)O)NC(=O)[C@H](CC(C)C)NC(=O)[C@H](Cc1c[nH]c2ccccc12)NC(=O)[C@@H]1CCCN1C(=O)CNC(=O)[C@@H]1CCC(=O)N1)C(=O)N[C@@H](CC(=O)O)C(=O)N[C@@H](Cc1ccccc1)C(=O)NCC(=O)O [GglyE8-10A] ([pGlu]GPWLEEAAAAYGWMDFG-OH)
- Stoichiometry of ferric ion binding [1]: 1.23 ± 0.08

Molecule: EEEEE [Peptide E5]
- Maximum change in chemical shift of Glu9/Glu10 NH resonances on addition of ferric citrate [2]: did not shift the glutamate resonances

Molecule: EEEEEAY [Peptide E5AY]
- Maximum change in chemical shift of Glu9/Glu10 NH resonances on addition of ferric citrate [2]: 0.01 ppm
- Fold Increase in absorbance on addition of ferric ions (maximum) [3]: 3.5
- Stiochiom. of ferric ion binding [3]: 2.58
- Stoichiometry of binding [3]: approximately 2 moles ferric ion per mole of peptide

Molecule: Ggly1-4: fragment of Ggly, residues 1-4, SEQ ID NO:6
- Binding of ferric ions [1]: No binding

Molecule: Ggly12-18: C-terminal heptapeptide of Ggly, SEQ ID NO:8 (YGWMDFG; listed as Homo sapiens)
- Binding of ferric ions [1]: No binding

Molecule: Ggly: glycine-extended gastrin17, 18 amino acid non-amidated gastrin, SEQ ID NO:4, residues 55-72 of progastrin
- Stoichiometry of ferric ion binding [1]: 2.09 ± 0.07

Molecule: GglyE6A: Ggly mutant, Glu6 replaced by Ala, SEQ ID NO:10
- Stoichiometry of ferric ion binding [1]: 2.20 ± 0.06

Molecule: GglyE7A: Ggly mutant, Glu7 replaced by Ala, SEQ ID NO:11
- Stoichiometry of ferric ion binding [1]: 1.33 ± 0.16

Molecule: LEEEEEA [LE5A]
- Maximum change in chemical shift of Glu9/Glu10 NH resonances on addition of ferric citrate [2]: 0.01 ppm

Molecule: LEEEEEAYG [LE5AYG]
- Maximum change in chemical shift of Glu9/Glu10 NH resonances on addition of ferric citrate [2]: 0.06 ppm
- Fold Increase in absorbance on addition of ferric ions (maximum) [3]: 2.0
- Stiochiom. of ferric ion binding [3]: 1.93
- Stoichiometry of binding [3]: approximately 2 moles ferric ion per mole of peptide

Molecule: PEPTIDE1{L.E.E.E.E.E.A.Y}$$$$V2.0
- purity (crude or final not stated) [4]: 98%

Source: patent US20070031511A1 (priority 2003, published 2007)
